Test results as given in PubChem BioAssay AID493014 (National Center for Advancing Translational Sciences (NCATS), 2011).
This is one part of the list. Further columns of the screen follow, without active or inactive calls. Compounds called inactive in the main read-out are mostly missing here. Potencies come from curve fits of mixed quality, noted in brackets.

Assay: qHTS Assay to Find Inhibitors of Chronic Active B-Cell Receptor Signaling
Conditions: ABC-DLBCL IkBa-CBG/CBR reporter, luminescence ratio (green luciferase fused to IkBa over red control in TMD8 lymphoma cells), 4 h
Method in brief: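 Doxycycline induced both beetle luciferases in TMD8 lymphoma cells; IKK-driven degradation limits the IkappaBalpha-fused green signal, while red luminescence normalises for cell number and nonspecific effects. Compounds tested up to 46 uM, 4 hrs.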

[1] = measured here: CBR red luminescence, cell number
[2] = measured here: IkBa-CBG green luminescence

| SMILES | AC50 [1] | AC50 [2] |
| --- | --- | --- |
| N=C(N)SCP(=O)(c1ccccc1)c1ccccc1 | 11.2 µM [falling, partial curve] | – |
| CCn1c(SCC(=O)N2CCCCC2C)nc2ccsc2c1=O (configuration not stated) | 3.98 µM [falling, partial curve, poor fit] | – |
| Cc1sc2ncnc(OCC(=O)N3CCN(S(=O)(=O)c4ccc(Cl)cc4)CC3)c2c1C | 4.11 µM [falling, single point] | – |
| CC1CSc2nc3sc4c(c3c(=O)n21)CCCC4 (configuration not stated) | 11.2 µM [rising, partial curve, poor fit] | – |
| CCOc1ccc(CCNS(=O)(=O)c2cc(Br)cc3c2N(C(C)=O)CC3)cc1OCC | 2.24 µM [rising, partial curve, poor fit] | – |
| Cc1cc(N2CCN(c3ccccc3)CC2)nc2ccccc12 | 2.24 µM [rising, full curve, poor fit] | – |
| CCOC(=O)c1c(NC(=O)c2ccc(S(=O)(=O)N(CC(C)C)CC(C)C)cc2)sc2c1CCN(C(=O)OCC)C2 | – | 2.82 µM [rising, partial curve, poor fit] |
| Cc1ccc(NC(=O)C[n+]2ccccc2)cc1[N+](=O)[O-] | 0.562 µM [falling, full curve, poor fit] | – |
| Cc1cc(C)cc(NS(=O)(=O)c2ccc3c(c2)c(=O)n(C)c(=O)n3C)c1 | 20.6 µM [falling, partial curve, poor fit] | – |
| CC1(C)CC2(C)OC(=N)C1(C#N)C2(C#N)C#N (configuration not stated) | 17.8 µM [falling, single point] | – |
| CN(C)CCOc1ccc(-c2c(-c3ccsc3)sc3ccccc23)cc1 | 29.1 µM [falling, single point] | – |
| CC1=Nc2ccccc2/C1=C/c1sc(=S)n(-c2cccc(C(=O)O)c2)c1O | 35.5 µM [falling, single point] | – |
| O=C(Nc1ncc2c(n1)-c1ccccc1CC2)c1cccc(Cl)c1 | 3.98 µM [falling, partial curve, poor fit] | – |
| Cc1ccc(C)c(S(=O)(=O)N2CCN(C(=O)c3ccccn3)CC2)c1 | 0.731 µM [rising, full curve, poor fit] | – |
| Nc1ccccc1-c1nc2ccccc2c(=O)o1 | 35.5 µM [falling, single point] | – |
| CS(=O)(=O)N(CC(O)Cn1c2ccccc2c2ccccc21)c1cccc2ccccc12 (configuration not stated) | 16.4 µM [falling, partial curve, poor fit] | – |
| CCC(CC)NC(=O)c1cc2c(C)nn(Cc3ccccc3Cl)c2s1 | – | 8.2 µM [falling, partial curve, poor fit] |

Whole records, quoted from the list. Order of values: AC50 [1] | AC50 [2]
`CC1=Nc2ccccc2/C1=C/c1sc(=S)n(-c2cccc(C(=O)O)c2)c1O` in the list: 35.5 µM [falling, single point] | –
`CCOC(=O)c1c(NC(=O)c2ccc(S(=O)(=O)N(CC(C)C)CC(C)C)cc2)sc2c1CCN(C(=O)OCC)C2` in the list: – | 2.82 µM [rising, partial curve, poor fit]
